No constants are given. Whether binding was seen depends on the method and setting. Some entries that bind do so weakly or less than the wild type.
Tests used:
Test in all cases: ELISA; ligand coated on microtiter plates at 5 µg/ml (factor B 10 µg/ml) in PBS; methylamine-treated C3 cell media at four concentrations in low salt buffer (10 mM Tris, pH 7.2, 25 mM NaCl, 0.05% Tween 20, 4% BSA), 2 h at 37°C; bound C3met detected with rabbit anti-human C3c antibody; only the target purified
factor H = factor H (UniProt P08603)
factor I = factor I (UniProt P05156)
CD55 = CD55 (UniProt P08174)

Sequences of proteins named here, by UniProt entry; tags and fusion partners are left off. A change or cut given only in a name is not applied to a line headed by its entry. Residues count along the entry.
UniProt P08603, residues 19-1231: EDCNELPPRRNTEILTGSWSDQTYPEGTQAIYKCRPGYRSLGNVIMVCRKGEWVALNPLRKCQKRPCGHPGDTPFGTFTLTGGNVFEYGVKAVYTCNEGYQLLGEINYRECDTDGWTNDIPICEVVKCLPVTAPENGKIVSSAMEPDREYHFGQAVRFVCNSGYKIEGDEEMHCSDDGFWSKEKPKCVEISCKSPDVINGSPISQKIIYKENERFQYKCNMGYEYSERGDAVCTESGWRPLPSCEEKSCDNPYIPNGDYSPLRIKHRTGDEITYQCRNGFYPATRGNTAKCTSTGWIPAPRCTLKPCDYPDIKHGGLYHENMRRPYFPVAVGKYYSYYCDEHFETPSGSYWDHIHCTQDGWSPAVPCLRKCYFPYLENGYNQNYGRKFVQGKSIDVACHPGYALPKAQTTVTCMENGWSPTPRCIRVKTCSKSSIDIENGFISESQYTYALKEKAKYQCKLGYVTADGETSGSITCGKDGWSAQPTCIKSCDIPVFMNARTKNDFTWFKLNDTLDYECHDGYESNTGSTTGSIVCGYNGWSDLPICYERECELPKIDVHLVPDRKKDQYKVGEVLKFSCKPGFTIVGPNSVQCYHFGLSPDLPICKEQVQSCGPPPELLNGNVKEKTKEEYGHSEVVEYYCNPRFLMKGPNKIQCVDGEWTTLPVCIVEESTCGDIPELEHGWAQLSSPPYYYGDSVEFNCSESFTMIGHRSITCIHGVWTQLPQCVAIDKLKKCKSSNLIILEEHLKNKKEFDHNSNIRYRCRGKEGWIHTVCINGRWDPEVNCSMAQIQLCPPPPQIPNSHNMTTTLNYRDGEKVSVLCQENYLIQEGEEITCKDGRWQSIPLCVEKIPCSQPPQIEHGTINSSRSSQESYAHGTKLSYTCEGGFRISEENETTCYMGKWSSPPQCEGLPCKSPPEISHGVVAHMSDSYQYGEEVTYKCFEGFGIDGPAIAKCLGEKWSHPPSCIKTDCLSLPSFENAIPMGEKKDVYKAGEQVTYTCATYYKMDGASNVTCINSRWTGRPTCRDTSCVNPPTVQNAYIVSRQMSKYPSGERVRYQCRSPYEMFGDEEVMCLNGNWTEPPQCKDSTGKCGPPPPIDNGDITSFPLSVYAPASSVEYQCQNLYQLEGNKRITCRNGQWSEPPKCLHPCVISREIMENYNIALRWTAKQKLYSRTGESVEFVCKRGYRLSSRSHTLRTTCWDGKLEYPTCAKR
UniProt P05156, residues 19-583: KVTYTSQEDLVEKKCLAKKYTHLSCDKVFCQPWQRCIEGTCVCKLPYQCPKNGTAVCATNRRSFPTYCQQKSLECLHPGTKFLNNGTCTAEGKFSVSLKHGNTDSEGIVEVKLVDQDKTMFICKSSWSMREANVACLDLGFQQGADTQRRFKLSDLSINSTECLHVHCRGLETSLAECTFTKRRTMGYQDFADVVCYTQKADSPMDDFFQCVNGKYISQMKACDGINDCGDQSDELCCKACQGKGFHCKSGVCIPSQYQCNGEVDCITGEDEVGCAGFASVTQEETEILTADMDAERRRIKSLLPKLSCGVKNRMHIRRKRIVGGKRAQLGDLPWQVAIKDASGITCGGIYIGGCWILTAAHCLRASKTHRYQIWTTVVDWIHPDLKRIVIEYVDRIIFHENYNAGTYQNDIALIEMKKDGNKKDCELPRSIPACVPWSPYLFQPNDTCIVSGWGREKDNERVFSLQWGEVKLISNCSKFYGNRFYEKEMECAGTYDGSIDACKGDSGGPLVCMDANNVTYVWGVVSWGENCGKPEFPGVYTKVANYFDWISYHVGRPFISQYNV
UniProt P08174, residues 35-353: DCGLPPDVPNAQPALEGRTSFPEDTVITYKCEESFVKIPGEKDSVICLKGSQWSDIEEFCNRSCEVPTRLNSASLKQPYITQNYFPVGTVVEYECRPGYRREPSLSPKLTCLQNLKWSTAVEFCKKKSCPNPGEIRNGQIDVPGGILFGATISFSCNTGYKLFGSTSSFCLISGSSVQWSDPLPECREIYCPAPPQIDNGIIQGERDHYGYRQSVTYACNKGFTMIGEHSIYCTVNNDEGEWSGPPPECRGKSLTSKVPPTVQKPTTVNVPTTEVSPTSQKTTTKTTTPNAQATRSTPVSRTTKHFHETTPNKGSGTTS
UniProt P01024: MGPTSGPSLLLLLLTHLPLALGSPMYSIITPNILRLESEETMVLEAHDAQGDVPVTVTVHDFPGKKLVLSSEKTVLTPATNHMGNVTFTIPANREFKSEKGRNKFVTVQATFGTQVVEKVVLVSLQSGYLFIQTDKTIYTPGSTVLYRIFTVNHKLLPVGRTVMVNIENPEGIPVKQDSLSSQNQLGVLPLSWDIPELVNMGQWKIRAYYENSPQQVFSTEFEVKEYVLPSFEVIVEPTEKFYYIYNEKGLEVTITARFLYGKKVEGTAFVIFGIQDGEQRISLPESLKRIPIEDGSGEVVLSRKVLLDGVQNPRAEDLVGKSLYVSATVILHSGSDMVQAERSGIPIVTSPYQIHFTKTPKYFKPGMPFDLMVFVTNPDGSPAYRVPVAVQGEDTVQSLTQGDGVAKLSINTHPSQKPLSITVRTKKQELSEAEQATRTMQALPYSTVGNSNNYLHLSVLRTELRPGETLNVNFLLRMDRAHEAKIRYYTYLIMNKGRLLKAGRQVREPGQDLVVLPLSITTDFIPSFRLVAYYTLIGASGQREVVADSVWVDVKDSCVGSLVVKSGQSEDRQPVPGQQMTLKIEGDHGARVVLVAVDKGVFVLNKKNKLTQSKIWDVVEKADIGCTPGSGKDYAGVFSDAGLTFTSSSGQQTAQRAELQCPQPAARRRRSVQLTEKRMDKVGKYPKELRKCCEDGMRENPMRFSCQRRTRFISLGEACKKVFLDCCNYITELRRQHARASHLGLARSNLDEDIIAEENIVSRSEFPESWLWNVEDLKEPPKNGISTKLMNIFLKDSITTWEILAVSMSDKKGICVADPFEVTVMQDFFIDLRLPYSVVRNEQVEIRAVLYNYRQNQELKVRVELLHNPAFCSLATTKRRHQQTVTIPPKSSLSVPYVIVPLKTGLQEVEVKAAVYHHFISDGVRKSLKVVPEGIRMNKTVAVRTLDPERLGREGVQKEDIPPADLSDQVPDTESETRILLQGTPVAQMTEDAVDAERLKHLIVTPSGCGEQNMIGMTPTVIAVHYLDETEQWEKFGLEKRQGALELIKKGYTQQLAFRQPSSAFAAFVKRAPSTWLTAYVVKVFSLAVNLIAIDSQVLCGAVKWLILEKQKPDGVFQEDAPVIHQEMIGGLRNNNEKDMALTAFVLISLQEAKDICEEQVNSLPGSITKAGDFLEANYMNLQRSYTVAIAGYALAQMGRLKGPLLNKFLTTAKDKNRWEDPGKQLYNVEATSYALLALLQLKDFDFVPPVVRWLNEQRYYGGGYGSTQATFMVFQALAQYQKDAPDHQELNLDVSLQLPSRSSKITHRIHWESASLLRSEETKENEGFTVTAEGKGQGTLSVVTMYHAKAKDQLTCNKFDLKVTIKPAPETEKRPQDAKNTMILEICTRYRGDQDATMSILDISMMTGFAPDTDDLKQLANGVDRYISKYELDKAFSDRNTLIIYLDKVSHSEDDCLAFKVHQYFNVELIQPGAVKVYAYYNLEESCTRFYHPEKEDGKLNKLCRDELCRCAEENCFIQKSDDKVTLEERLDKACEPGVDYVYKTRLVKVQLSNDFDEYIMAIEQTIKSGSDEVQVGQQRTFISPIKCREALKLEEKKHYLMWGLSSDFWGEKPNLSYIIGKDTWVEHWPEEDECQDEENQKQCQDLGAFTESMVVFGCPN

Substance	binding (factor H)	binding (factor I)	binding (CD55)
C3met, methylamine-treated recombinant complement component C3, wild type (from UniProt P01024 23-667; P01024 672-1663)	binds	binds	binds
C3met R1591G (from UniProt P01024 23-667; P01024 672-1663)	binds	binds	–
C3met G1606D (from UniProt P01024 23-667; P01024 672-1663)	binds	binds	binds
C3met R735W (from UniProt P01024 23-667; P01024 672-1663)	binds	–	–
C3met K155Q (from UniProt P01024 23-667; P01024 672-1663)	binds	–	–
C3met R102G (from UniProt P01024 23-667; P01024 672-1663)	binds	–	–

From PMC6090058
